## Screening data, single-dose tests

Protein sequences, listed by entry. Tags and fused reporters are not part of them. Residues count along the entry.
UniProt Q8IDJ8, 1-583: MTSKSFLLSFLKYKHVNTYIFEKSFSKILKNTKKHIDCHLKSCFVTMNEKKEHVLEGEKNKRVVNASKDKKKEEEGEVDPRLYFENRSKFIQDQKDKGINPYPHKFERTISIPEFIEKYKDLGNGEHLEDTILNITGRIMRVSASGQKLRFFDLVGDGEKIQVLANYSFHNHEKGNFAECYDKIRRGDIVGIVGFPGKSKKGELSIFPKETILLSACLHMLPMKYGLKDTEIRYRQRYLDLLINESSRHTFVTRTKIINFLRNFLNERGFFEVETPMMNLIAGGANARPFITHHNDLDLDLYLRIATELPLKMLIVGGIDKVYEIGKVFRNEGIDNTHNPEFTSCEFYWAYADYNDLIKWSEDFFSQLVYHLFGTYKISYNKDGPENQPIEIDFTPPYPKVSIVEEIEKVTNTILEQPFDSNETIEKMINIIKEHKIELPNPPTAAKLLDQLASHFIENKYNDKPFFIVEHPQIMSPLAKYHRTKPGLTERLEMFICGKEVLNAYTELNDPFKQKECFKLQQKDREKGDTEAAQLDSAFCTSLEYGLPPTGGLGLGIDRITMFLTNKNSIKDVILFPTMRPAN

Measurements from “University of Dundee, Small-Polar-MMV Screening Library” (2021), ChEMBL document CHEMBL3988442.

T. brucei: 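Whole-parasite assay of Trypanosoma brucei over 72 hours; the read-out is not stated. Compounds at 30 µM. Higher reads as stronger inhibition (inferred: compounds with an IC50 in retests scored well above the rest). Values scatter widely below zero; nearly all retest evidence comes from the higher of the two concentrations used. Of about 64,000 compounds tested this way, about 940 (1.5%) reached 50% or more in at least one test.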
PfKRS1: 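Lysine-tRNA ligase, Plasmodium falciparum 3D7 (UniProt Q8IDJ8). Enzyme assay of the cytosolic lysyl-tRNA synthetase in 384-well plates, read by luminescence. Tested at 30 µM. Higher reads as stronger inhibition, judged from the few compounds that gave an IC50. About 69,000 compounds were tested under these conditions; 0.071% (about 49) showed 50% or more at least once.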

Each number is a percent effect as filed.
How 0% and 100% were set is not recorded. Most values in the screen are low, and negative values occur.
Compounds were drawn at random from those tested, without regard to their results.

For CNC(=O)c1noc(Cn2ncc3ccccc3c2=O)n1 the result was T. brucei: -81.72%; PfKRS1: -0.04924%. For O=C(CN(CC(O)c1ccc(F)cc1)C1CC1)Nc1cccnc1 (centres undefined) the result was T. brucei: -81.12%; PfKRS1: -8.625%. Result for Cc1ccsc1CNC(=O)CCc1c(C)nc2cc(O)nn2c1C was T. brucei: -14.68%; PfKRS1: 0.9768%. With CCO[C@H]1CN(C(=O)c2ccc3c(c2)OCO3)[C@@H]2COC[C@H]12 the screen gave PfKRS1: 2.583%. Result for CCN1CCN(C(=O)C2CCOC2)c2ccccc21 (centres undefined) was T. brucei: -27.65%; PfKRS1: -1.42%. Result for Cc1cccc(CN2CCc3ncnc(Oc4cccnc4)c3CC2)n1 was T. brucei: 8.908%; PfKRS1: -0.9752%. With Cc1nc(C)n(CC2CCCCN2CC(=O)Nc2c(C)n[nH]c2C)n1 (centres undefined) the screen gave PfKRS1: 0.7738%. O=C1OCCN1Cc1cccc(C(F)(F)F)c1F read T. brucei: -9.233%; PfKRS1: 2.07%.

CC(C)n1[nH]c(=O)c2c1NC(=O)CC2c1cccc(OC(F)F)c1 (centres undefined) gave T. brucei: -19.49%; PfKRS1: -0.2511%. For O=C(NCC1CCCCO1)c1ccc(-c2cccs2)[nH]c1=O (centres undefined) the result was T. brucei: 2.937%; PfKRS1: 4.836%. For O=C(C1=NN(Cc2ccccc2)c2ccccc2S1(=O)=O)N1CCCC1 the result was T. brucei: 7.561%; PfKRS1: 4.357%. With CCc1cnc(N2CC3(CCN(C(=O)c4ccoc4)C3)C2)nc1 the screen gave T. brucei: -42.97%; PfKRS1: -0.02189%. Result for O=C(O)C(F)(F)F.O=C(O)C(F)(F)F.[H][C@@]12COC[C@]1(COc1ccccn1)CN(Cc1ccoc1)C2 was T. brucei: 33.43%. CCC(CN1CCCC1)n1cncc1-c1cnn(Cc2ccccc2)c1 (centres undefined) read PfKRS1: 0.934%. Result for CC(C)[C@@H]1CN(Cc2cnc(C3CCCCC3)nc2)C[C@H]1C(=O)O was T. brucei: -32.87%; PfKRS1: 3.361%. CCc1nc(CC(=O)N2CCOCC2c2ncon2)cs1 (centres undefined) read T. brucei: -28.22%; PfKRS1: 2.118%.

Cc1nc(C)c(C(=O)N2CCc3cc(F)ccc3C2C)o1 (centres undefined) gave T. brucei: -34.2%; PfKRS1: 0.3922%. O=C(O)[C@]12CCCN(Cc3ccncc3)[C@@H]1CCN(c1cnccn1)C2 read PfKRS1: -0.9789%. For COc1ccc2c(c1)CCCN2C(=O)NC1CCCCNC1=O (centres undefined) the result was T. brucei: -15.14%; PfKRS1: -5.161%. Result for CC(C(=O)N1CCN(c2ccccc2)CC1)n1cc(Br)cn1 (centres undefined) was T. brucei: -11.59%; PfKRS1: 4.198%. CC(NC(=O)N1CCCC1)c1ccc(S(N)(=O)=O)cc1 (centres undefined) read T. brucei: -78.14%; PfKRS1: 5.241%. For COC(=O)C1CN(Cc2nc(-c3ccccc3)cs2)C[C@@H](C)O1 (some centres undefined) the result was T. brucei: 5.387%; PfKRS1: 5.495%. CN(Cc1n[nH]c2c1CCCC2)c1nc(C2CC2)nc2c1CCNCC2 read T. brucei: 53.53%; PfKRS1: -1.752%. For CN1[C@H]2CC[C@@H]1CN(C(=O)CCc1csc(N)n1)CC2 the result was PfKRS1: 7.917%.

With C1CCC(NC2CCCN(Cc3noc(C4CC4)n3)C2)C1 (centres undefined) the screen gave T. brucei: 11.18%; PfKRS1: -2.026%. For Cc1cnn(CC2CN(Cc3noc(C4CC4)n3)CCO2)c1 (centres undefined) the result was T. brucei: 5.374%; PfKRS1: 1.293%. CCN(C)S(=O)(=O)N1CCC(C(O)c2ccc(F)cc2)CC1 (centres undefined) read T. brucei: -3.148%; PfKRS1: -0.5973%. With COCCn1ccc2c(C(=O)NC3CN4CCC3CC4)cccc21 (centres undefined) the screen gave T. brucei: -10.35%; PfKRS1: 4.364%. With O=C(NCc1cnc2n1CCN(CC1CCOCC1)C2)c1ccno1 the screen gave PfKRS1: -0.5506%. For [H][C@]12CC[C@](O)(CC1)C(CN1CCOCC1)N2Cc1ccc(F)cc1 (some centres undefined) the result was T. brucei: -19.63%. Result for CCN1CC2(CCN(Cc3nc(CSC)no3)CC2)CC1=O was T. brucei: -36.94%; PfKRS1: 4.98%. Cc1ccn(CC(=O)Nc2cc(-c3ccncc3)[nH]n2)n1 read T. brucei: 11.2%; PfKRS1: 5.016%.

With O=C(O)C1(n2ccnc2)CCN(Cc2ccc3occc3c2)CC1 the screen gave T. brucei: -21.24%; PfKRS1: -0.05457%. With COCc1ccccc1CNc1nnc(C)c(C)c1C#N the screen gave T. brucei: -61.26%; PfKRS1: -6.428%. With CC(C)(C)C(=O)NCCn1ccc(-c2ccncc2)n1 the screen gave T. brucei: -62.72%; PfKRS1: 0.3362%. For O=C1C[C@H]2CC[C@@H](CN1)N2C1CCOCC1 the result was PfKRS1: 6.912%. O=c1c(NCCc2ccc(O)cc2)c(NCc2ccco2)c1=O read T. brucei: -2.293%; PfKRS1: 3.611%. Result for CC(=O)N1CCC(C(=O)N2CCC2c2nc(-c3ccc(C)s3)no2)CC1 (centres undefined) was T. brucei: -26.91%; PfKRS1: -1.446%. For COc1c(CNC2CCc3cc(Cl)ccc32)c(C)nn1C (centres undefined) the result was PfKRS1: 0.6565%. Cc1cc(C2CCCN2Cc2cc(=O)n(C)c(=O)n2C)on1 (centres undefined) read T. brucei: 2.907%; PfKRS1: 5.013%.

CC(C)COC[C@H]1CC[C@H]2[C@H](CCN2C(=O)c2ccncc2F)O1 gave PfKRS1: 6.459%. Result for [H][C@@]12CCN[C@]1([H])CN(S(=O)(=O)c1cccc(Cl)c1)C2 was T. brucei: -12.98%. With O=c1n(CCNCc2cccc3ccccc23)nc2ccccn12 the screen gave T. brucei: -5.233%; PfKRS1: 4.764%.

Some entries from above, unchanged:

Result for CC(C)(C)C(=O)NCCn1ccc(-c2ccncc2)n1 was T. brucei: -62.72%; PfKRS1: 0.3362%.
Result for CCc1nc(CC(=O)N2CCOCC2c2ncon2)cs1 (centres undefined) was T. brucei: -28.22%; PfKRS1: 2.118%.